Reference: patent US10563263B2, “Genetic polymorphisms associated with statin response and cardiovascular diseases, methods of detection and uses thereof” (CELERA CORPORATION, priority 2010, dated 2020)
This continues a long series; more values of the same kind are listed elsewhere.

Tested on: CHD
Experiment: Meta-analysis of CARE and WOSCOPS combined, synergy index, CHD endpoint
Assay type: in vivo, human
From the text: Tables 4-5 provide meta-analyses of CARE and WOSCOPS combined (2nd section of each table) for two endpoints (CHD and CVD) and three genetic models (dominant, recessive, and additive), as well as logistic regression analyses of CARE (3rd section of each table) and WOSCOPS (4th section of each table) individually.
Tables 12 and 17 provide results of meta-analysis of the CARE and WOSCOPS sample sets combined by direct genotyping and by imputing genotypes.
“P” indicates the p-value, and “P(R)” (or “P.R.”) indicates the p-value random effect. Both of these are p-values corresponding to a statistical test of whether the combined synergy index is equal to one but use different assumptions to derive the p-value. “P” is calculated using a fixed effects model, and “P(R)” is calculated using a random effects model.
“OR” indicates the odds ratio (synergy index) calculated from a fixed effects model, and “OR(R)” (or “OR.R.”) indicates the odds ratio (synergy index) calculated from a random effects model.

[1] = SNP rs1463768, allele (A1) G, RECESSIVE, Genotyped
[2] = SNP rs1463769, allele (A1) G, RECESSIVE, Imputed
[3] = SNP rs1472435, allele (A1) A, ADDITIVE, Imputed
[4] = SNP rs1472435, allele (A1) A, DOMINANT, Imputed
[5] = SNP rs1476714, allele (A1) A, DOMINANT, Imputed
[6] = SNP rs1495159, allele (A1) G, ADDITIVE, Imputed
[7] = SNP rs1495159, allele (A1) G, GENOTYPIC, Imputed
[8] = SNP rs1495375, allele (A1) A, DOMINANT, Imputed
[9] = SNP rs1495376, allele (A1) T, DOMINANT, Imputed
[10] = SNP rs1495377, allele (A1) G, DOMINANT, Imputed
[11] = SNP rs1495381, allele (A1) T, GENOTYPIC, Imputed
[12] = SNP rs1495381, allele (A1) T, RECESSIVE, Imputed
[13] = SNP rs1498992, allele (A1) G, DOMINANT, Imputed
[14] = SNP rs1499001, allele (A1) T, DOMINANT, Imputed
[15] = SNP rs1512988, allele (A1) A, DOMINANT, Imputed
[16] = SNP rs1512989, allele (A1) T, DOMINANT, Imputed
[17] = SNP rs1512991, allele (A1) T, ADDITIVE, Imputed
[18] = SNP rs1512991, allele (A1) T, DOMINANT, Imputed
[19] = SNP rs1516855, allele (A1) G, RECESSIVE, Imputed
[20] = SNP rs1527450, allele (A1) T, ADDITIVE, Imputed
[21] = SNP rs1527450, allele (A1) T, GENOTYPIC, Imputed
[22] = SNP rs1567740, allele (A1) T, DOMINANT, Imputed
[23] = SNP rs1572573, allele (A1) A, ADDITIVE, Imputed
[24] = SNP rs1572573, allele (A1) A, DOMINANT, Imputed
[25] = SNP rs1584003, allele (A1) C, DOMINANT, Imputed
[26] = SNP rs1584005, allele (A1) C, DOMINANT, Imputed
[27] = SNP rs1585771, allele (A1) G, ADDITIVE, Imputed
[28] = SNP rs1592015, allele (A1) G, DOMINANT, Imputed
[29] = SNP rs1594885, allele (A1) A, ADDITIVE, Imputed
[30] = SNP rs1603232, allele (A1) A, DOMINANT, Imputed
[31] = SNP rs1614565, allele (A1) C, DOMINANT, Imputed
[32] = SNP rs1648200, allele (A1) G, ADDITIVE, Imputed
[33] = SNP rs1694334, allele (A1) G, ADDITIVE, Imputed
[34] = SNP rs1700400, allele (A1) T, ADDITIVE, Imputed
[35] = SNP rs1705237, allele (A1) A, DOMINANT, Imputed
[36] = SNP rs1705261, allele (A1) A, GENOTYPIC, Imputed
[37] = SNP rs1705261, allele (A1) A, RECESSIVE, Imputed
[38] = SNP rs1782328, allele (A1) A, ADDITIVE, Imputed
[39] = SNP rs1796337, allele (A1) T, DOMINANT, Imputed
[40] = SNP rs1798083, allele (A1) C, DOMINANT, Imputed
[41] = SNP rs1798085, allele (A1) T, DOMINANT, Imputed
[42] = SNP rs1798086, allele (A1) T, DOMINANT, Imputed
[43] = SNP rs1798089, allele (A1) C, GENOTYPIC, Imputed
[44] = SNP rs1798089, allele (A1) C, RECESSIVE, Imputed
[45] = SNP rs1798090, allele (A1) C, GENOTYPIC, Imputed
[46] = SNP rs1798090, allele (A1) C, RECESSIVE, Imputed
[47] = SNP rs1832222, allele (A1) G, DOMINANT, Imputed
[48] = SNP rs1838104, allele (A1) A, ADDITIVE, Imputed
[49] = SNP rs1838104, allele (A1) A, GENOTYPIC, Imputed

Question: Which results are given for CC[C@H](C)C(=O)O[C@H]1C[C@H](O)C=C2C=C[C@H](C)[C@H](CC[C@@H](O)C[C@@H](O)CC(=O)O)[C@H]21 [Pravastatin, pravastatin]?
Answer: OR [1]: 1.8009; OR(R) [1]: 1.8886; OR [2]: 1.8295; OR(R) [2]: 1.9062; OR [3]: 0.5022; OR(R) [3]: 0.4908; OR [4]: 0.5076; OR(R) [4]: 0.4938; OR [5]: 0.5726; OR(R) [5]: 0.5726; OR [6]: 0.6509; OR(R) [6]: 0.6509; OR [7]: 0.3915; OR(R) [7]: 0.3915; OR [8]: 0.5962; OR(R) [8]: 0.5962; OR [9]: 0.5347; OR(R) [9]: 0.5347; OR [10]: 0.5484; OR(R) [10]: 0.5467; OR [11]: 1.8616; OR(R) [11]: 1.8616; OR [12]: 1.9326; OR(R) [12]: 1.9326; OR [13]: 0.6213; OR(R) [13]: 0.6213; OR [14]: 0.6214; OR(R) [14]: 0.6214; OR [15]: 0.5976; OR(R) [15]: 0.5976; OR [16]: 0.5976; OR(R) [16]: 0.5976; OR [17]: 0.7391; OR(R) [17]: 0.7391; OR [18]: 0.5816; OR(R) [18]: 0.5816; OR [19]: 2.1755; OR(R) [19]: 2.1755; OR [20]: 1.486; OR(R) [20]: 1.486; OR [21]: 2.2868; OR(R) [21]: 2.2868; OR [22]: 0.596; OR(R) [22]: 0.596; OR [23]: 1.6309; OR(R) [23]: 1.6309; OR [24]: 1.8564; OR(R) [24]: 1.8564; OR [25]: 1.8445; OR(R) [25]: 1.8445; OR [26]: 1.8227; OR(R) [26]: 1.8227; OR [27]: 1.4824; OR(R) [27]: 1.4824; OR [28]: 0.5728; OR(R) [28]: 0.5728; OR [29]: 1.5121; OR(R) [29]: 1.5121; OR [30]: 0.5656; OR(R) [30]: 0.5656; OR [31]: 0.5357; OR(R) [31]: 0.5357; OR [32]: 1.4867; OR(R) [32]: 1.4867; OR [33]: 0.6436; OR(R) [33]: 0.6436; OR [34]: 0.6508; OR(R) [34]: 0.6508; OR [35]: 0.5283; OR(R) [35]: 0.5283; OR [36]: 1.8782; OR(R) [36]: 1.8782; OR [37]: 1.9326; OR(R) [37]: 1.9326; OR [38]: 0.6019; OR(R) [38]: 0.6019; OR [39]: 0.576; OR(R) [39]: 0.576; OR [40]: 0.5525; OR(R) [40]: 0.5525; OR [41]: 0.538; OR(R) [41]: 0.538; OR [42]: 0.5214; OR(R) [42]: 0.5214; OR [43]: 1.9613; OR(R) [43]: 1.9613; OR [44]: 1.9649; OR(R) [44]: 1.9649; OR [45]: 1.9722; OR(R) [45]: 1.9722; OR [46]: 1.941; OR(R) [46]: 1.941; OR [47]: 1.6153; OR(R) [47]: 1.6079; OR [48]: 0.6927; OR(R) [48]: 0.6927; OR [49]: 0.4828; OR(R) [49]: 0.4828
